Reference: PubChem BioAssay AID220 (DTP/NCI, 2004)
The list does not hold the whole screen: it gathers tests that were run many times, whatever their T/C, doses with no T/C, and many T/C values between a quarter and a half above the control. Other doses and runs of a compound stand elsewhere. T/C is the treated group as % of the vehicle group. Schedules are NCI's codes, read here as Q, the interval in days (D) or hours (H), X, the number of doses. Some T/C values carry the count of animals alive at the toxicity check (mostly the fifth day); where none is given, no animal had died by that day. Some entries give survivors of the animals treated and no T/C: the source holds a T/C of zero for them, seemingly a mark for toxic or unscored doses. Survivors were counted at the toxicity check, usually on the fifth day, unless a day is given; later deaths do not show. Some entries were tested several times; the results are listed from low to high.

System: CD8F1 mice, subcutaneous mammary adenocarcinoma, T/C%
Assay: NCI In Vivo Anticancer Drug Screen. Data for tumor model Mammary Adenocarcinoma CD8F1 (subcutaneous) in CD8F1
Settings: higher T/C = larger tumour
Summary of the method: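 Transplantable tumors were established in mice, animals were dosed with compound or vehicle, and survival or tumor size was then measured in both groups. The treated result was divided by the control result.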

[1] = T/C endpoint: median tumor weight change, dose: 500.0 mg/kg/injection, schedule: Q01DX001 (ip), vehicle: saline with Tween-80
[2] = T/C endpoint: median tumor weight (est.), dose: 25.0 mg/kg/injection, schedule: Q07DX005 (ip), vehicle: saline
[3] = T/C endpoint: median tumor weight (est.), dose: 50.0 mg/kg/injection, schedule: Q07DX005 (ip), vehicle: saline

In the case of COC1CC(C)C(OC)c2cc(O)cc(c2O)NC(=O)/C(C)=C/C=C\C(C)C(OC(N)=O)/C(C)=C\C(C)C1OC (centres undefined), the survivor count (T/C endpoint: median tumor weight change, dose: 50.0 mg/kg/injection, schedule: Q01DX001 (ip), vehicle: saline + Tween-80 + alcohol) is reported as 0 of 10 on day 28 and the survivor count (T/C endpoint: median tumor weight change, dose: 100.0 mg/kg/injection, schedule: Q01DX001 (ip), vehicle: saline + Tween-80 + alcohol) is reported as 1 of 10 on day 28.
For COc1cccc2c1C(=O)c1c(O)c3c(c(O)c1C2=O)C[C@@](O)(/C(C)=N/NC(=O)c1ccccc1)C[C@@H]3OC1CC(N)C(O)C(C)O1 (some centres undefined), the survivor count (T/C endpoint: median tumor weight (est.), dose: 12.5 mg/kg/injection, schedule: Q07DX005 (ip), vehicle: water) was 6 of 10.
For N/C(=N\OC(=O)Nc1ccc(CSc2ccc(Cl)cc2)o1)c1ccccn1, the survivor count (T/C endpoint: median tumor weight change, dose: 500.0 mg/kg/injection, schedule: Q01DX001 (ip), vehicle: Klucel (hydroxypropylcellulose) (HPC)) was 0 of 10 on day 28 and the survivor count (T/C endpoint: median tumor weight change, dose: 1000.0 mg/kg/injection, schedule: Q01DX001 (ip), vehicle: Klucel (hydroxypropylcellulose) (HPC)) was 0 of 10 on day 28.
With CC1=CC(C)(C)Nc2ccc(CSc3ccccc3)cc21 the T/C (T/C endpoint: median tumor weight change, dose: 250.0 mg/kg/injection, schedule: Q01DX001 (ip), vehicle: DMSO, evaluated on day 28) was 149 % of control.
In the case of CC(Cc1ccc(O)c(O)c1)C(C)Cc1ccc(O)c(O)c1 (centres undefined), the T/C (T/C endpoint: median tumor weight change, dose: 125.0 mg/kg/injection, schedule: Q01DX001 (ip), vehicle: saline, evaluated on day 28) is reported as 134 % of control, the T/C (T/C endpoint: median tumor weight change, dose: 250.0 mg/kg/injection, schedule: Q01DX001 (ip), vehicle: saline, evaluated on day 28) is reported as 137 % of control and the survivor count (T/C endpoint: median tumor weight change, dose: 2000.0 mg/kg/injection, schedule: Q01DX001 (ip), vehicle: saline) is reported as 3 of 10 on day 28.
For O=C(O[Si](Cc1ccccc1)(Cc1ccccc1)Cc1ccccc1)N(CCCl)CCCl, the T/C (T/C endpoint: median tumor weight change, dose: 125.0 mg/kg/injection, schedule: Q01DX001 (ip), vehicle: saline with Tween-80, evaluated on day 28) was 154 % of control, the T/C (T/C endpoint: median tumor weight change, dose: 125.0 mg/kg/injection, schedule: Q01DX001 (ip), vehicle: saline with Tween-80, evaluated on day 32) was 66 % of control and the T/C (T/C endpoint: median tumor weight change, dose: 125.0 mg/kg/injection, schedule: Q01DX001 (ip), vehicle: saline with Tween-80, evaluated on day 33) was 121 % of control. The T/C (T/C endpoint: median tumor weight change, dose: 125.0 mg/kg/injection, schedule: Q01DX001 (ip), vehicle: saline with Tween-80, evaluated on day 35) was 132 % of control, the T/C (T/C endpoint: median tumor weight change, dose: 250.0 mg/kg/injection, schedule: Q01DX001 (ip), vehicle: saline with Tween-80, evaluated on day 28) was 116 % of control and the T/C (T/C endpoint: median tumor weight change, dose: 250.0 mg/kg/injection, schedule: Q01DX001 (ip), vehicle: saline with Tween-80, evaluated on day 32) was 77 % of control. The T/C (T/C endpoint: median tumor weight change, dose: 250.0 mg/kg/injection, schedule: Q01DX001 (ip), vehicle: saline with Tween-80, evaluated on day 33) was 78 % of control, the T/C (T/C endpoint: median tumor weight change, dose: 250.0 mg/kg/injection, schedule: Q01DX001 (ip), vehicle: saline with Tween-80, evaluated on day 35) was 65 % of control and the T/C (T/C endpoint: median tumor weight change, dose: 500.0 mg/kg/injection, schedule: Q01DX001 (ip), vehicle: saline with Tween-80, evaluated on day 28) was 15 % of control. For the same compound, the survivor count [1] was 1 of 10 on day 32, 2 of 10 on day 35, 5 of 10 on day 33 and the survivor count (T/C endpoint: median tumor weight change, dose: 1000.0 mg/kg/injection, schedule: Q01DX001 (ip), vehicle: saline with Tween-80) was 0 of 10 on day 28, 0 of 10 on day 32, 0 of 10 on day 33, 0 of 10 on day 35.
With Nc1ccccc1N the T/C (T/C endpoint: median tumor weight (est.), dose: 50.0 mg/kg/injection, schedule: Q07DX005 (ip), vehicle: Klucel (hydroxypropylcellulose) (HPC), evaluated on day 30) was 136 % of control [9 of 10 alive].
Oc1ccc(CCl)c2cccnc12 was tested, and the survivor count (T/C endpoint: median tumor weight change, dose: 250.0 mg/kg/injection, schedule: Q01DX001 (ip), vehicle: saline) was 5 of 10 on day 34, the survivor count (T/C endpoint: median tumor weight change, dose: 500.0 mg/kg/injection, schedule: Q01DX001 (ip), vehicle: saline) was 1 of 10 on day 34 and the survivor count (T/C endpoint: median tumor weight change, dose: 1000.0 mg/kg/injection, schedule: Q01DX001 (ip), vehicle: saline) was 0 of 10 on day 34.
For Nc1c(C(=O)O)[nH]c(=O)[nH]c1=O, the T/C (T/C endpoint: median tumor weight (est.), dose: 25.0 mg/kg/injection, schedule: Q07DX005 (ip), vehicle: saline with Tween-80, evaluated on day 30) was 127 % of control and the T/C (T/C endpoint: median tumor weight (est.), dose: 50.0 mg/kg/injection, schedule: Q07DX005 (ip), vehicle: saline with Tween-80, evaluated on day 30) was 140 % of control [9 of 10 alive].
With CC(=O)NNC(=O)c1ccccn1 the T/C (T/C endpoint: mean tumor weight, dose: 50.0 mg/kg/injection, schedule: Q01DX009 (ip), vehicle: saline, evaluated on day 36) was 145 % of control and the T/C (T/C endpoint: mean tumor weight, dose: 50.0 mg/kg/injection, schedule: Q07DX005 (ip), vehicle: saline, evaluated on day 30) was 138 % of control.
For O=C(O)C1CC(c2ccccc2)=NN1c1ccccc1 (centres undefined), the survivor count (T/C endpoint: median tumor weight (est.), dose: 400.0 mg/kg/injection, schedule: Q07DX005 (ip), vehicle: water) was 0 of 10 on day 30.
CC1CC(C)CC(C)C(O)/C(C#N)=C/C=C/CC(C2CCCC2C(=O)O)OC(=O)CC(O)C(C)C1 (centres undefined) was tested, and the T/C (T/C endpoint: median tumor weight (est.), dose: 0.75 mg/kg/injection, schedule: Q07DX005 (ip), vehicle: Klucel (hydroxypropylcellulose) (HPC), evaluated on day 30) was 133 % of control and the T/C (T/C endpoint: median tumor weight (est.), dose: 1.5 mg/kg/injection, schedule: Q07DX005 (ip), vehicle: Klucel (hydroxypropylcellulose) (HPC), evaluated on day 30) was 137 % of control.
With CC1(O)CC23CC(O)C4(O)C(CC(O)C4(C)C)C(C)(O)C2CCC1C3O (centres undefined) the survivor count (T/C endpoint: median tumor weight change, dose: 1.0 mg/kg/injection, schedule: Q01DX001 (ip), vehicle: Klucel (hydroxypropylcellulose) (HPC)) was 4 of 10 on day 42, the survivor count (T/C endpoint: median tumor weight change, dose: 2.0 mg/kg/injection, schedule: Q01DX001 (ip), vehicle: Klucel (hydroxypropylcellulose) (HPC)) was 0 of 10 on day 42 and the survivor count (T/C endpoint: median tumor weight change, dose: 4.0 mg/kg/injection, schedule: Q01DX001 (ip), vehicle: Klucel (hydroxypropylcellulose) (HPC)) was 1 of 10 on day 42.
In the case of ClCCCN1CCCCC1CCl (centres undefined), the survivor count [2] is reported as 5 of 10 on day 30 and the survivor count [3] is reported as 0 of 10 on day 30.
With CCCCOC(=O)/C=C(\Br)C(=O)OCCCC the T/C (T/C endpoint: median tumor weight (est.), dose: 12.5 mg/kg/injection, schedule: Q07DX005 (ip), vehicle: saline with Tween-80, evaluated on day 32) was 139 % of control.
CC1=C(C)C(=O)O[C@@H]([C@](C)(O)[C@]2(O)CC[C@@]3(O)[C@@H]4C[C@H]5O[C@]56[C@@H](O)C=CC(=O)[C@]6(C)[C@H]4CC[C@]23C)C1 was tested, and the survivor count (T/C endpoint: median tumor weight change, dose: 150.0 mg/kg/injection, schedule: Q01DX001 (ip), vehicle: saline) was 1 of 10 on day 29 and the survivor count (T/C endpoint: median tumor weight change, dose: 300.0 mg/kg/injection, schedule: Q01DX001 (ip), vehicle: saline) was 0 of 10 on day 29.
For CCCCCn1c(C)cc(/C=C\c2ccc3cc(C)ccc3[n+]2C)c1C, the survivor count (T/C endpoint: median tumor weight (est.), dose: 0.62 mg/kg/injection, schedule: Q07DX005 (ip), vehicle: Klucel (hydroxypropylcellulose) (HPC)) was 4 of 10 on day 30, the survivor count (T/C endpoint: median tumor weight (est.), dose: 1.25 mg/kg/injection, schedule: Q07DX005 (ip), vehicle: Klucel (hydroxypropylcellulose) (HPC)) was 3 of 10 on day 30 and the survivor count (T/C endpoint: median tumor weight (est.), dose: 2.5 mg/kg/injection, schedule: Q07DX005 (ip), vehicle: Klucel (hydroxypropylcellulose) (HPC)) was 5 of 10 on day 30. For the same compound, the survivor count (T/C endpoint: median tumor weight (est.), dose: 5.0 mg/kg/injection, schedule: Q07DX005 (ip), vehicle: Klucel (hydroxypropylcellulose) (HPC)) was 3 of 10 on day 30, the survivor count (T/C endpoint: median tumor weight (est.), dose: 10.0 mg/kg/injection, schedule: Q07DX005 (ip), vehicle: Klucel (hydroxypropylcellulose) (HPC)) was 0 of 10 on day 30 and the survivor count (T/C endpoint: median tumor weight (est.), dose: 20.0 mg/kg/injection, schedule: Q07DX005 (ip), vehicle: Klucel (hydroxypropylcellulose) (HPC)) was 0 of 10 on day 30.
In the case of CO[C@@]12[C@@H]3N[C@@H]3CN1C1=C(C(=O)C(NCC3CCCO3)=C(C)C1=O)[C@@H]2COC(N)=O (some centres undefined), the survivor count (T/C endpoint: median tumor weight change, dose: 50.0 mg/kg/injection, schedule: Q01DX001 (ip), vehicle: distilled water + Tween-80) is reported as 1 of 10 on day 28 and 4 of 10 on day 32 and the survivor count (T/C endpoint: median tumor weight change, dose: 100.0 mg/kg/injection, schedule: Q01DX001 (ip), vehicle: distilled water + Tween-80) is reported as 0 of 10 on day 28 and 0 of 10 on day 32.
In the case of OCC1OC(n2cnc3cncnc32)C(O)C1O (centres undefined), the survivor count [2] is reported as 6 of 10 on day 30, the survivor count [3] is reported as 3 of 10 on day 30 and the survivor count (T/C endpoint: median tumor weight (est.), dose: 100.0 mg/kg/injection, schedule: Q07DX005 (ip), vehicle: saline) is reported as 0 of 10 on day 30.
In the case of c1ccc2c(c1)-c1ccccc1C1NC21 (centres undefined), the survivor count (T/C endpoint: median tumor weight change, dose: 125.0 mg/kg/injection, schedule: Q01DX001 (ip), vehicle: saline with Tween-80) is reported as 4 of 10 on day 32, the survivor count (T/C endpoint: median tumor weight change, dose: 250.0 mg/kg/injection, schedule: Q01DX001 (ip), vehicle: saline with Tween-80) is reported as 0 of 10 on day 32 and the survivor count [1] is reported as 1 of 10 on day 32.
For O=C(O)C1CSCN1 (centres undefined), the survivor count (T/C endpoint: median tumor weight change, dose: 400.0 mg/kg/injection, schedule: Q01DX001 (ip), vehicle: water) was 0 of 10 on day 29.
